# Experimental data as given in US10829516B2 (London Health Sciences Centre Research Inc., priority 2015, dated 2020).
# By UniProt entry, the sequences of proteins in these tests, tags left out.
# UniProt Q92847, whole entry: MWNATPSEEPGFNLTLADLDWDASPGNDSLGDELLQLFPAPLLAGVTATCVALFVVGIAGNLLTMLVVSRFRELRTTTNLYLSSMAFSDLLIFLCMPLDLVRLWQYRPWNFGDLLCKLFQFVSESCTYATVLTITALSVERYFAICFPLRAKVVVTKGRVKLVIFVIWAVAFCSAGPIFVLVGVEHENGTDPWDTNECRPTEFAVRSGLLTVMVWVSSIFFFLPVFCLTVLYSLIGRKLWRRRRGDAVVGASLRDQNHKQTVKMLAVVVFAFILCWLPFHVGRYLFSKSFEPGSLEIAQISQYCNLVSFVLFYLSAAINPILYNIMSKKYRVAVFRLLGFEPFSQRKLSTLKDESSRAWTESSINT
# Not every detail of the peptide structures is certain; ends, links or a residue may be inferred. For part of these data: For at least one compound, name, drawing or mass did not settle the structure. Non-standard residues stand in square brackets, D forms with d. Residues, ends and D or L forms follow the SMILES beside them. Groups on a side chain read outwards from the residue. *: point of attachment. d2Nal = N[C@H](Cc1ccc2ccccc2c1)C(=O)O; Benzoyl(4-F) = O=C(c1ccc(F)cc1)*; Propanoyl(2-F) = CC(F)C(=O)*; AEEA = NCCOCCOCC(=O)O; Aib = CC(C)(N)C(=O)O; Inp = O=C(O)C1CCNCC1
# Columns and labels:
# GHS-R1a = target: T1, GHS-R1a (Homo sapiens, UniProt Q92847); assay: Receptor-ligand competitive binding assay, HEK293/GHS-R1a cells with [125I]ghrelin as radioligand; conditions: Table 1, displacement of [125I]ghrelin
# T1 construct: expressed in transfected cells; host or cells: HEK293
# Protocol: Receptor-Ligand Binding Assay
# Competitive binding assays were run at the Lawson Health Research Institute at St. Joseph's Health Care in London. […] To begin with, a fresh solution of binding buffer (50 ml) was made up by adding HEPES (0.3 g, 25 mM), MgCl2 (0.051 g, 5 mM), CaCl2 (7.4×10^−3 g, 1 mM), EDTA (0.015 g, 2.5 mM) and BSA (0.2 g, 0.4%) to distilled H2O. The resultant solution was mixed over gentle heat. The pH was then adjusted to 7.4 and the solution filtered. Two miniature complete protease inhibitor tablets were then added and the final buffer solution kept on ice.
# After the buffer had been made, assay tubes were labelled and kept on ice during the setup. To assay tubes 1-21, 25-27 and 28-30 was added binding buffer (200 μl, 230 μl and 300 μl respectively). No buffer was added to tubes 22-24. An aliquot of frozen cells was thawed to room temperature, centrifuged (3000×g, 10 mins, room temperature) and the subsequent cell pellet re-suspended in binding buffer (2 ml) and placed on ice. Cells (50 μl) were then added to assay tubes 1-21 and 25-27. Cold peptide was then prepared. […]
# All assay tubes were then vortexed, capped and immediately agitated (550 rpm, 20 mins, 37° C.). […] The tubes were then placed in 12×75 mm assay tubes and counted using a gamma counter (see protocol 3). […]
# [1] = target: Human recombinant ghrelin receptor (Homo sapiens, UniProt Q92847); assay: Calcium flux dose-response assay (FLIPR TETRA, EMD Millipore GPCRProfiler); format: cell-based; conditions: chem-1 cells, Fluo-8 NW dye, duplicate; read-out: EC50, intracellular Ca2+ release
# Protocol: Another in vitro assay performed on the 4-fluorobenzoyl agonist [1-Nal^4,Lys^5(4-FB)]G-7039 and the [Lys^5(2-FP)]G-7039 agonist was a calcium flux dose-response assay. […] In this particular case, the biological effect of the peptidomimetic [1-Nal^4,Lys^5(4-FB)]G-7039 and the peptidomimetic [Lys^5(2-FP)]G-7039 is the release of intracellular calcium ions, a process which is detected by fluorescence using a […] instrument.
# If the compound remained soluble 15 minutes after addition, samples were shipped to the EMD Millipore Corporation (15 Research Park Drive, St. Charles, Mo. 63304, USA). […] The agonist assay was performed for a total of 180 seconds. Each assay and assay concentration was performed in duplicate. The data acquired is presented in FIG. 51 ([1-Nal^4,Lys^5(4-FB)]G-7039) and FIG. 52 (Lys^5(2-FP)]G-7039).
SMILES,IC50 (GHS-R1a) [nM],EC50 [1] [nM]
"CC(C)(N)C(=O)N[C@@H](Cc1c[nH]cn1)C(=O)N[C@H](Cc1ccc2ccccc2c1)C(=O)N[C@H](Cc1ccccc1)C(=O)N[C@@H](CCCCNC(=O)COCCOCCNC(=O)c1ccc(F)cc1)C(N)=O [4-FB-AEEA-Ipamorelin, H-Aib-His-D-2-Nal-D-Phe-Lys(4-FB-AEEA)-NH2] (H-[Aib]H[d2Nal][dF]K([AEEA-Benzoyl(4-F)])-NH2)",474,–
"CC(F)C(=O)NCCCC[C@H](NC(=O)[C@H](Cc1ccccc1)NC(=O)[C@@H](Cc1ccc2ccccc2c1)NC(=O)[C@@H](Cc1ccc2ccccc2c1)NC(=O)C1CCNCC1)C(N)=O (stereo partly drawn) [Compound 2-FP-G-7039, H-Inp-D-2-Nal-D-2-Nal-Phe-Lys(2-FP)-NH2] (H-[Inp][d2Nal][d2Nal]FK(Propanoyl(2-F))-NH2)",12,0.02
